From publication PMC6345439, “INDETERMINATE-DOMAIN 4 (IDD4) coordinates immune responses with plant-growth in Arabidopsis thaliana”
Where a chain is given by its changes, count along the chain named. No constants are given. Whether binding was seen depends on the method and setting. For some assays here: Binding seen in cells or lysates may run through a third protein. Some results given as binding are weak or reduced against the parent protein; the word gives no strength. Sequences can lack the tags named with a protein.

The chains behind the UniProt entries cited, without tags or fusion partners.
UniProt Q39026: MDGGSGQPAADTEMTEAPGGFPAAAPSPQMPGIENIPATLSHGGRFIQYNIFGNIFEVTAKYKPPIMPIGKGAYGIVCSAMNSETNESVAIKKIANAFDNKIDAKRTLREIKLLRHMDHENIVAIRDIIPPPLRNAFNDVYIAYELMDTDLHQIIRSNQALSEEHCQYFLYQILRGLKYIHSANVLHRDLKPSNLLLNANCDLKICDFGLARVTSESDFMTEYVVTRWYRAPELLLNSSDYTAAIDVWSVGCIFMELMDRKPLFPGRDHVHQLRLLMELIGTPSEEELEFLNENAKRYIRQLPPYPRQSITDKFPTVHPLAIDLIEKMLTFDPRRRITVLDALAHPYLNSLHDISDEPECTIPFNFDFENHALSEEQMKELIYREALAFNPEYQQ

T1: BD-GAI (C-terminal domain of GAI, amino acids 148 to 533) (Arabidopsis thaliana) (UniProt Q9LQT8)
T1 sequence: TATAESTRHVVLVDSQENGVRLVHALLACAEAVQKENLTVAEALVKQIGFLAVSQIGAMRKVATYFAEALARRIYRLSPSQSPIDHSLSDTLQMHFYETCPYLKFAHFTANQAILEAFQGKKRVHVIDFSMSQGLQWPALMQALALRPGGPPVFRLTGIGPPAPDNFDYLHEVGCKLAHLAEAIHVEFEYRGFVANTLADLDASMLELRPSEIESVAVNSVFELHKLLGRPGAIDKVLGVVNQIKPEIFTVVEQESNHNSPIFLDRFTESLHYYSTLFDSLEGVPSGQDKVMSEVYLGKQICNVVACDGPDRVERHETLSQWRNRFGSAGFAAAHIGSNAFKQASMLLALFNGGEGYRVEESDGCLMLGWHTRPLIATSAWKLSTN

T2: SCL3 (SCARECROW-like 3), BiFC fusion (Arabidopsis thaliana) (UniProt Q9LPR8)
T2 sequence: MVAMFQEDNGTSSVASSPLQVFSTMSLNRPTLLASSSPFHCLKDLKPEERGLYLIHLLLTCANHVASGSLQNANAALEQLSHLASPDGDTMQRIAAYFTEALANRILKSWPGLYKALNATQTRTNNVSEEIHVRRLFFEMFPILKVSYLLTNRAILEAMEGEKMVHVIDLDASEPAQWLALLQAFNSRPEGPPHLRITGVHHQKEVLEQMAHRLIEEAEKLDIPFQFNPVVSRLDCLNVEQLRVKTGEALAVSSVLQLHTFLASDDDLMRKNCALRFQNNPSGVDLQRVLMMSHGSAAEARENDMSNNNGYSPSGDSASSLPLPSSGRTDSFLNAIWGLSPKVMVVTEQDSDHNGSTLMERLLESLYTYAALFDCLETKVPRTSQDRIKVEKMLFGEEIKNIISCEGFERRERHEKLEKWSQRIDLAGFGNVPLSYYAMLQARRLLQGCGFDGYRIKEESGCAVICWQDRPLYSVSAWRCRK

B1: MBP-His-tagged IDD4 (…-DOMAIN 4 / IMPERIAL EAGLE) (protein, UniProt Q8GYC1 71-516)
chain: ALSPKTLMATNRFICDVCNKGFQREQNLQLHRRGHNLPWKLKQKSTKEVKRKVYLCPEPTCVHHDPSRALGDLTGIKKHYYRKHGEKKWKCEKCSKRYAVQSDWKAHSKTCGTKEYRCDCGTIFSRRDSYITHRAFCDALIQETARNPTVSFTSMTAASSGVGSGGIYGRLGGGSALSHHHLSDHPNFGFNPLVGYNLNIASSDNRRDFIPQSSNPNFLIQSASSQGMLNTTPNNNNQSFMNQHGLIQFDPVDNINLKSSGTNNSFFNLGFFQENTKNSETSLPSLYSTDVLVHHREENLNAGSNVSATALLQKATQMGSVTSNDPSALFRGLASSSNSSSVIANHFGGGRIMENDNNGNLQGLMNSLAAVNGGGGSGGSIFDVQFGDNGNMSGSDKLTLDFLGVGGMVRNVNRGGGGGGRGSARGGVSLDGEAKFPEQNYPFGRG
B2: AD-IDD4 (protein, UniProt Q8GYC1 1-516)
chain: MSSSSYNTSVIPSSSSSAQPFFITSSGTGDNDFNRKDTFMSMIQQPNSSAPPPKKRRNQPGNPNPDAEVVALSPKTLMATNRFICDVCNKGFQREQNLQLHRRGHNLPWKLKQKSTKEVKRKVYLCPEPTCVHHDPSRALGDLTGIKKHYYRKHGEKKWKCEKCSKRYAVQSDWKAHSKTCGTKEYRCDCGTIFSRRDSYITHRAFCDALIQETARNPTVSFTSMTAASSGVGSGGIYGRLGGGSALSHHHLSDHPNFGFNPLVGYNLNIASSDNRRDFIPQSSNPNFLIQSASSQGMLNTTPNNNNQSFMNQHGLIQFDPVDNINLKSSGTNNSFFNLGFFQENTKNSETSLPSLYSTDVLVHHREENLNAGSNVSATALLQKATQMGSVTSNDPSALFRGLASSSNSSSVIANHFGGGRIMENDNNGNLQGLMNSLAAVNGGGGSGGSIFDVQFGDNGNMSGSDKLTLDFLGVGGMVRNVNRGGGGGGRGSARGGVSLDGEAKFPEQNYPFGRG
B3: YFP^N-IDD4 (protein, UniProt Q8GYC1 71-516)
chain: B1 chain
B4: IDD4-AA (phospho-dead IDD4 S-73-A, T-130-A), BiFC fusion (protein, UniProt Q8GYC1 71-516)
chain: B1 chain with S3A, T60A
B5: IDD4-DD (phospho-mimicking IDD4 S-73-D, T-130-D), BiFC fusion (protein, UniProt Q8GYC1 71-516)
chain: B1 chain with S3D, T60D
B6: AD-IDD4-AA (protein, UniProt Q8GYC1 1-516)
chain: B2 chain with S73A, T130A
B7: AD-IDD4-DD (protein, UniProt Q8GYC1 1-516)
chain: B2 chain with S73D, T130D

What was measured:
[1] = biological target: GST-tagged MPK6 (Arabidopsis thaliana) (UniProt Q39026); test: pull-down; in vitro pull-down with MBP-His-tagged IDD4 and GST-tagged MAPKs; which protein was held is not told; no methods section for it
[2] = biological target: T1, BD-GAI (C-terminal domain of GAI, amino acids 148 to 533) (Arabidopsis thaliana); test: two-hybrid; yeast strain AH109 co-transformed with BD-GAI and AD fusions; growth on selective media lacking Leu, Trp, Ade and His
[3] = biological target: T2, SCL3 (SCARECROW-like 3), BiFC fusion (Arabidopsis thaliana); test: split reporter; BiFC with N- and C-terminal parts of YFP, CaMV-35S promoter, agro-infiltrated Nicotiana benthamiana leaves with P19, confocal microscopy after 3 days; signal in the nucleus
[4] = biological target: YFP^C-linked MPK6 (Arabidopsis thaliana) (UniProt Q39026); test: as above

Row | Binder | binding [2] | binding [3] | further results
1 | B1 |  |  | binding [1]: binds
2 | B2 | binds |  | 
3 | B3 |  | binds | binding [4]: binds
4 | B4 |  | binds | 
5 | B5 |  | binds | 
6 | B6 | binds |  | 
7 | B7 | binds |  | 
